PubChem BioAssay AID1224830 | NIAID | 2016
Purpose: 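Genes whose knock-down alters the TNF-alpha reporter response to LPS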 (primary screen). Cells: human THP-1 monocytic leukaemia cells, TNF dual-luciferase reporter clone, PMA-differentiated to macrophage-like cells. Reagents: siRNA pool against human genes, 50 nM. Timing: LPS for 4 h, given about 3 days after siRNA transfection. Treatment: bacterial LPS (TLR4 ligand), 10 ng/ml. Read-out: 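Ratio of firefly to renilla light, scaled to the plate median and expressed as a robust z-score per replicate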. Reading the numbers: TNF reporter robust z-score: higher = stronger TNF reporter response to LPS. Call rule: 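a well is active when its z-score exceeds 2.8 or falls below -1.5; control wells carry no call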.
The deposit covers about 18,000 reagents; below is a part drawn at random. About 2,900 of them (16%) were called active. 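Calls are made per well; low scores hint the gene aids the LPS response, high scores that it dampens it.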 Repeated entries: four replicate wells of each siRNA pool.

ZNF552
- TNF reporter robust z-score: -0.02
- activity call: inactive

ZNF552
- TNF reporter robust z-score: -0.49
- activity call: inactive

ZNF552
- TNF reporter robust z-score: -0.87
- activity call: inactive

ZNF552
- TNF reporter robust z-score: -0.53
- activity call: inactive

FGF3
- TNF reporter robust z-score: 0.21
- activity call: inactive

FGF3
- TNF reporter robust z-score: 0.19
- activity call: inactive

FGF3
- TNF reporter robust z-score: 0.12
- activity call: inactive

FGF3
- TNF reporter robust z-score: 0.02
- activity call: inactive

ATAD5
- TNF reporter robust z-score: -0.46
- activity call: inactive

ATAD5
- TNF reporter robust z-score: 0.08
- activity call: inactive

ATAD5
- TNF reporter robust z-score: 0.53
- activity call: inactive

ATAD5
- TNF reporter robust z-score: 0.75
- activity call: inactive

ANKFY1
- TNF reporter robust z-score: 0.2
- activity call: inactive

ANKFY1
- TNF reporter robust z-score: -0.49
- activity call: inactive

ANKFY1
- TNF reporter robust z-score: -0.92
- activity call: inactive

ANKFY1
- TNF reporter robust z-score: 0.09
- activity call: inactive

GALNT7
- TNF reporter robust z-score: -0.67
- activity call: inactive

GALNT7
- TNF reporter robust z-score: 0.37
- activity call: inactive

GALNT7
- TNF reporter robust z-score: -1.1
- activity call: inactive

GALNT7
- TNF reporter robust z-score: -0.75
- activity call: inactive

TIMM13
- TNF reporter robust z-score: -1.19
- activity call: inactive

TIMM13
- TNF reporter robust z-score: -1.12
- activity call: inactive

TIMM13
- TNF reporter robust z-score: -0.81
- activity call: inactive

TIMM13
- TNF reporter robust z-score: -0.79
- activity call: inactive

DCTD
- TNF reporter robust z-score: -0.7
- activity call: inactive

DCTD
- TNF reporter robust z-score: 0.28
- activity call: inactive

DCTD
- TNF reporter robust z-score: -0.13
- activity call: inactive

DCTD
- TNF reporter robust z-score: 0.03
- activity call: inactive

IGFLR1
- TNF reporter robust z-score: 2.05
- activity call: inactive

IGFLR1
- TNF reporter robust z-score: 7.49
- activity call: active

IGFLR1
- TNF reporter robust z-score: 3.1
- activity call: active

IGFLR1
- TNF reporter robust z-score: 1.95
- activity call: inactive

MINAR1
- TNF reporter robust z-score: 0.04
- activity call: inactive

MINAR1
- TNF reporter robust z-score: 1.09
- activity call: inactive

MINAR1
- TNF reporter robust z-score: 0.94
- activity call: inactive

MINAR1
- TNF reporter robust z-score: 0.59
- activity call: inactive

WDR4
- TNF reporter robust z-score: 0.49
- activity call: inactive

WDR4
- TNF reporter robust z-score: -0.37
- activity call: inactive

WDR4
- TNF reporter robust z-score: -1.05
- activity call: inactive

WDR4
- TNF reporter robust z-score: 0.79
- activity call: inactive

GET1
- TNF reporter robust z-score: -0.48
- activity call: inactive

GET1
- TNF reporter robust z-score: -0.04
- activity call: inactive

GET1
- TNF reporter robust z-score: -0.34
- activity call: inactive

GET1
- TNF reporter robust z-score: -0.52
- activity call: inactive

CD47
- TNF reporter robust z-score: -0.5
- activity call: inactive

CD47
- TNF reporter robust z-score: -0.53
- activity call: inactive

CD47
- TNF reporter robust z-score: -0.52
- activity call: inactive

CD47
- TNF reporter robust z-score: -0.3
- activity call: inactive

Reagents listed above called active (2):
IGFLR1
- TNF reporter robust z-score: 7.49
- activity call: active

IGFLR1
- TNF reporter robust z-score: 3.1
- activity call: active
